Data on 1 molecule can be found in publication PMC8698322.

Sequences of proteins named here, by UniProt entry; tags and fusion partners are left off. A change or cut given only in a name is not applied to a line headed by its entry.
UniProt Q257C6: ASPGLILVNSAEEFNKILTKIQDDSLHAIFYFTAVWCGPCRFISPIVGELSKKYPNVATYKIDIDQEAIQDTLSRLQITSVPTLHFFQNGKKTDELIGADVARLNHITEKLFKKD

This experiment has as its target recombinant pea thioredoxin o1 (PsTRXo1) (pea) (UniProt Q257C6). Put plainly: far-Western, overlay or dot blot; PsTRXo1 (1.5 µg), HsATG4B (2.3 µg) and BSA (1.5 µg) spotted on membranes, blocked in TBST (25 mM Tris-HCl pH 7.5, 1% BSA, 0.1% Tween-20), overlaid with 0.2 µg PsTRXo1 or 0.1 µg HsATG4B in TBST for 2 h at room temperature; detected with anti-PsTRXo1 or anti-CrATG4B; both purified.

No constants are given. Whether binding was seen depends on the method and setting. A result given as binding can be weak or reduced; the word gives no strength. Sequences can lack the tags named with a protein.

B1: recombinant human ATG4B, His-tagged (His-HsATG4B) (enzyme, UniProt Q9Y4P1 1-393)
chain: MDAATLTYDTLRFAEFEDFPETSEPVWILGRKYSIFTEKDEILSDVASRLWFTYRKNFPAIGGTGPTSDTGWGCMLRCGQMIFAQALVCRHLGRDWRWTQRKRQPDSYFSVLNAFIDRKDSYYSIHQIAQMGVGEGKSIGQWYGPNTVAQVLKKLAVFDTWSSLAVHIAMDNTVVMEEIRRLCRTSVPCAGATAFPADSDRHCNGFPAGAEVTNRPSPWRPLVLLIPLRLGLTDINEAYVETLKHCFMMPQSLGVIGGKPNSAHYFIGYVGEELIYLDPHTTQPAVEPTDGCFIPDESFHCQHPPCRMSIAELDPSIAVGFFCKTEDDFNDWCQQVKKLSLLGGALPMFELVELQPSHLACPDVLNLSLDSSDVERLERFFDSEDEDFEILSL
For the molecule B1, the binding result was “binds”.
